The list shows a part of the results.
Legend:
Assay in all cases: log2 fold change, soluble protein after heating vs DMSO (PISA); higher = thermal stabilisation; K562 lysate, 10 uM; active = over 0.2 and 3.5 SD of the protein, either way, in both replicates (recomputed)
vemurafenib = compound: CCCS(=O)(=O)Nc1ccc(F)c(C(=O)c2c[nH]c3ncc(-c4ccc(Cl)cc4)cc23)c1F [vemurafenib]
Procedure, shortened: (§1)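 Dounce homogenisation of K562 pellets in PBS pH 7.4 with 1 mM MgCl2 produced a crude extract, used at 1 mg/mL protein. Exposure to 10 μM compound lasted 30 min, and aliquots were then heated for 3 min across 48°C-58°C, pooled and brought to 0.5% NP-40 at 4°C. The supernatant after 21,000xg for 90 min was quantified by TMTpro 16plex LC-MS/MS with channel sums equalised. Duplicate values are given as log-two fold change in thermal stability relative to solvent controls.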

Protein sequences, listed by entry. Tags and fused reporters are not part of them. Lines headed by an entry give the natural chain unless they say otherwise; changes in a name come on top.
UniProt Q5GLZ8: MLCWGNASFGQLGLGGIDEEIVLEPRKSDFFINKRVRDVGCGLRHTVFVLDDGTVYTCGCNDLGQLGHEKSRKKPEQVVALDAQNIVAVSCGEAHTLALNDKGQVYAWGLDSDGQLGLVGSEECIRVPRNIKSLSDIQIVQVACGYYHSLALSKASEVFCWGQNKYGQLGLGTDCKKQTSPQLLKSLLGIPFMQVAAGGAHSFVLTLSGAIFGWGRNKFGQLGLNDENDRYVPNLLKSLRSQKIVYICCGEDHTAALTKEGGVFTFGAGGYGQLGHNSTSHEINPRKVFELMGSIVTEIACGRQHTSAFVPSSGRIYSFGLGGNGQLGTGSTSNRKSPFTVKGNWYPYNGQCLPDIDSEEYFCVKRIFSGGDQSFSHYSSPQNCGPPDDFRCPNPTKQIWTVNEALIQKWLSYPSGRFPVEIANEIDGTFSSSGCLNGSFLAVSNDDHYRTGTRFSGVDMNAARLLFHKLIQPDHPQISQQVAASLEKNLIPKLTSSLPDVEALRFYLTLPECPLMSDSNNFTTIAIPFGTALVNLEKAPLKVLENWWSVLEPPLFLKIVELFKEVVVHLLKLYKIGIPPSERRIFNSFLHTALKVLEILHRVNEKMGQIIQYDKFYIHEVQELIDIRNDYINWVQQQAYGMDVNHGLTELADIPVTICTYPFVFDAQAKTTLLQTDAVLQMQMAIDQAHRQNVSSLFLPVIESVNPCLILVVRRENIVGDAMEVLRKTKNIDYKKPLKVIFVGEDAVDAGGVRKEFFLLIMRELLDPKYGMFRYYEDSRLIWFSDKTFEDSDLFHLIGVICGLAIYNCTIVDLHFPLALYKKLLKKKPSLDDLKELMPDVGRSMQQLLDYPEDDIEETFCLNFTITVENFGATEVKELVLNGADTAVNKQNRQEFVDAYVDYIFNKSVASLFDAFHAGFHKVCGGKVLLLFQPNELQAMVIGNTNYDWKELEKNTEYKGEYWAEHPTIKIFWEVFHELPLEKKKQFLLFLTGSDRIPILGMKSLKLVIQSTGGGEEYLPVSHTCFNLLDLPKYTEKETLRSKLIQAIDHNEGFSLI
UniProt Q92506: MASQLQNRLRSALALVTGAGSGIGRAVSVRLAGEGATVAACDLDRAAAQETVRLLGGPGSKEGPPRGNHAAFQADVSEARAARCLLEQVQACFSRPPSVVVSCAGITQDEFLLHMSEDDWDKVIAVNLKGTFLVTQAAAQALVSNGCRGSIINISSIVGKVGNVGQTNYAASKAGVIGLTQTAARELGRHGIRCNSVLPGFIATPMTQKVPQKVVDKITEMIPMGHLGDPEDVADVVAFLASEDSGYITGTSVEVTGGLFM
UniProt Q9P0W2: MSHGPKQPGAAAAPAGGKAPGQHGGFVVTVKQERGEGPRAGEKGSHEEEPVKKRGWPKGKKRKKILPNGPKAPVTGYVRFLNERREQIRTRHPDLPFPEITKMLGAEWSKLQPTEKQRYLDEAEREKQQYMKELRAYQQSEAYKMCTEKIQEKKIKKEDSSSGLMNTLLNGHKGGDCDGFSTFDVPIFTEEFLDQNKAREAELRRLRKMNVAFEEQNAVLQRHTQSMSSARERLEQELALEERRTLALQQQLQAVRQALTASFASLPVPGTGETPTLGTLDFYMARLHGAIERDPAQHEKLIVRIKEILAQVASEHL
UniProt P49773: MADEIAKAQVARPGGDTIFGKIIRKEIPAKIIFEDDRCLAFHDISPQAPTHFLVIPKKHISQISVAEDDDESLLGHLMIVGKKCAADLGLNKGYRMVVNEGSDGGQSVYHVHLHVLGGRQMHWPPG
UniProt Q58FG1, whole entry, looked up: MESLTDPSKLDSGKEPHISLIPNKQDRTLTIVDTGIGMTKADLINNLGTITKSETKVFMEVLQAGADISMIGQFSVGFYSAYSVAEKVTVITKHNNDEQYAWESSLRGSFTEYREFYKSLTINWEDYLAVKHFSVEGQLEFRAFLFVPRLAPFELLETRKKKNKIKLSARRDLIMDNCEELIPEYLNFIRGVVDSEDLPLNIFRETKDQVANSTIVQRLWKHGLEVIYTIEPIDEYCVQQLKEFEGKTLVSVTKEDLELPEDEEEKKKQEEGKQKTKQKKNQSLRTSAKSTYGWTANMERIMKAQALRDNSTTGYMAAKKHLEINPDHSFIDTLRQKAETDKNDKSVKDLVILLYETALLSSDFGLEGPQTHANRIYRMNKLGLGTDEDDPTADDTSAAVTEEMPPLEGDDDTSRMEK
UniProt Q9NRV9: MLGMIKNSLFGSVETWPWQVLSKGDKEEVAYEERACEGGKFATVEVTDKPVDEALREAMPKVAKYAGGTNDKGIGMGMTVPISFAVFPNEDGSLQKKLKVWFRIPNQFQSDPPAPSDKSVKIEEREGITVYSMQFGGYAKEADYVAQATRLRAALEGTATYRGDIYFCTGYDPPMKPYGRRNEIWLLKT
UniProt P31943: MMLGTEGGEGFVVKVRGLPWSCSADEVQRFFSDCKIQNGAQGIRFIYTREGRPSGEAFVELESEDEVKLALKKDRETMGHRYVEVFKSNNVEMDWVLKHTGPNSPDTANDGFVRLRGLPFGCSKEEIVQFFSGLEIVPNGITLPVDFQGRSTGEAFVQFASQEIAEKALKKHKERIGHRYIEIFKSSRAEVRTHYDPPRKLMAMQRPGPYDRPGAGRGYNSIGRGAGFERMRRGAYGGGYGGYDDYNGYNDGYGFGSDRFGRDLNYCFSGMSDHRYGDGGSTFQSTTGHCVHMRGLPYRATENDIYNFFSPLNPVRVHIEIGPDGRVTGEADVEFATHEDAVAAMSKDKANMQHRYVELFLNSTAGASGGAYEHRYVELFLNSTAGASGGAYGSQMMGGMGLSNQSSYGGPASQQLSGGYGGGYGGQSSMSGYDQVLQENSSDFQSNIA
UniProt Q99714: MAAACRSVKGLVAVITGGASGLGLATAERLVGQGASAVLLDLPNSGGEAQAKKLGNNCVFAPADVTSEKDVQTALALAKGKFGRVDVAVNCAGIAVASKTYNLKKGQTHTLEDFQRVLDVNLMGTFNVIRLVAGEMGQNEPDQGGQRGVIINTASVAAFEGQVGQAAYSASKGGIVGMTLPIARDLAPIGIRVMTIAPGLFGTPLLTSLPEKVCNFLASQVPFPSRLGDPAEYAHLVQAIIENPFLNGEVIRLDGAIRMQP
UniProt P11021: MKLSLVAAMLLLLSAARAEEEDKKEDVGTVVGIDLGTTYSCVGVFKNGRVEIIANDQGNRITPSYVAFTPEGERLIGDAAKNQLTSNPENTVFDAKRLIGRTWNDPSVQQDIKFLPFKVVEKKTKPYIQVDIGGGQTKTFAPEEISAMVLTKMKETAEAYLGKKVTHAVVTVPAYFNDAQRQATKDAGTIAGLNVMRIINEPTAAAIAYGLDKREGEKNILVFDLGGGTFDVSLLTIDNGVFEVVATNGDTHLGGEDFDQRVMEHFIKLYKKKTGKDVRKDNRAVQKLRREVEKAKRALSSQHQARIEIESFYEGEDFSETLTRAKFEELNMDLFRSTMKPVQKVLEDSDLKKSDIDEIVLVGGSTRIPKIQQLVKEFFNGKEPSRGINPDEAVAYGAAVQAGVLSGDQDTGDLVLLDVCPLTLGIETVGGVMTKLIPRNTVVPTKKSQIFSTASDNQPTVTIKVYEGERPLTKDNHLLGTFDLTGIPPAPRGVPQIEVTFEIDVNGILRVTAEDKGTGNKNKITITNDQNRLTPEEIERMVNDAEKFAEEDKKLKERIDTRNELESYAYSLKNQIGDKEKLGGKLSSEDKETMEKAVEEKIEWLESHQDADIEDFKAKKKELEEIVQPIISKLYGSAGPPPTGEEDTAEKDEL
UniProt P31937: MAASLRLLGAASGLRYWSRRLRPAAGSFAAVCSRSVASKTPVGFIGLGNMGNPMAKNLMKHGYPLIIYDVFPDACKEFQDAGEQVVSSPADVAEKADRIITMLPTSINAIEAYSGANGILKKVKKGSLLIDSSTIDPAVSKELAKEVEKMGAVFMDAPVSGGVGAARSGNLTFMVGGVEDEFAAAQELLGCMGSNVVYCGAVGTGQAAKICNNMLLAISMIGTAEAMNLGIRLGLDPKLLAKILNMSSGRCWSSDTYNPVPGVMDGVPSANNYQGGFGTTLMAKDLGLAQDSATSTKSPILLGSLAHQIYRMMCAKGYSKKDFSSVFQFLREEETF
UniProt Q8TCT9: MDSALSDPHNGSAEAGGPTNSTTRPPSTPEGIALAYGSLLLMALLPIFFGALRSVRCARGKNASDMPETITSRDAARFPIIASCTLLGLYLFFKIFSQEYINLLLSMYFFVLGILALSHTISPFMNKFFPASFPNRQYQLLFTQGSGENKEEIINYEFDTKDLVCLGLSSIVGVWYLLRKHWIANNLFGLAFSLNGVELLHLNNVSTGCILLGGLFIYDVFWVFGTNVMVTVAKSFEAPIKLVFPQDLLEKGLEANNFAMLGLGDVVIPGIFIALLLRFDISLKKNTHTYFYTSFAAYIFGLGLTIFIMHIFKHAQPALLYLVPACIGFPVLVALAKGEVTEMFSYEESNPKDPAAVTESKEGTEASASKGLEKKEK
UniProt O95757: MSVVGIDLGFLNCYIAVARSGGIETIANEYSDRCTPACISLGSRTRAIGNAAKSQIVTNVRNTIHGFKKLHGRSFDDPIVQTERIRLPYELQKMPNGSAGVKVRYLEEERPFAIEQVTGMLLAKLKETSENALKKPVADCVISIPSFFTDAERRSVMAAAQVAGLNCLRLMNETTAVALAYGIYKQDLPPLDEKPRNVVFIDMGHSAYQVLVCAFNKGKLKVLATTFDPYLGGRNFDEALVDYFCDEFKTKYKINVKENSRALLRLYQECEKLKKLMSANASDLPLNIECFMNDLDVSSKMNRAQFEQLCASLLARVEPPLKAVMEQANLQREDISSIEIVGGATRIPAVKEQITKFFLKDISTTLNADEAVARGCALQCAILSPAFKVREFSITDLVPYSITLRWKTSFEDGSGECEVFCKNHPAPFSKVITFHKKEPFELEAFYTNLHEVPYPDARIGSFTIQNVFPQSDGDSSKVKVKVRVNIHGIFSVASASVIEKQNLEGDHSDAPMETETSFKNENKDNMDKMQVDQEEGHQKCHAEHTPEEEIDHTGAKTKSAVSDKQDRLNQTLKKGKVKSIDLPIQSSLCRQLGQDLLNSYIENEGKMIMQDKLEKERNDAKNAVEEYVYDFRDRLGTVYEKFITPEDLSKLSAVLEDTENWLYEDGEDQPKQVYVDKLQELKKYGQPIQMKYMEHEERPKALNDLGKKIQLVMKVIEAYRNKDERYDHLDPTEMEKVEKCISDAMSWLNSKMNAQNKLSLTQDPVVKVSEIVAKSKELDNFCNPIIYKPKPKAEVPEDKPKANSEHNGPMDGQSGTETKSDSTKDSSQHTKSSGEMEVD
UniProt O43390: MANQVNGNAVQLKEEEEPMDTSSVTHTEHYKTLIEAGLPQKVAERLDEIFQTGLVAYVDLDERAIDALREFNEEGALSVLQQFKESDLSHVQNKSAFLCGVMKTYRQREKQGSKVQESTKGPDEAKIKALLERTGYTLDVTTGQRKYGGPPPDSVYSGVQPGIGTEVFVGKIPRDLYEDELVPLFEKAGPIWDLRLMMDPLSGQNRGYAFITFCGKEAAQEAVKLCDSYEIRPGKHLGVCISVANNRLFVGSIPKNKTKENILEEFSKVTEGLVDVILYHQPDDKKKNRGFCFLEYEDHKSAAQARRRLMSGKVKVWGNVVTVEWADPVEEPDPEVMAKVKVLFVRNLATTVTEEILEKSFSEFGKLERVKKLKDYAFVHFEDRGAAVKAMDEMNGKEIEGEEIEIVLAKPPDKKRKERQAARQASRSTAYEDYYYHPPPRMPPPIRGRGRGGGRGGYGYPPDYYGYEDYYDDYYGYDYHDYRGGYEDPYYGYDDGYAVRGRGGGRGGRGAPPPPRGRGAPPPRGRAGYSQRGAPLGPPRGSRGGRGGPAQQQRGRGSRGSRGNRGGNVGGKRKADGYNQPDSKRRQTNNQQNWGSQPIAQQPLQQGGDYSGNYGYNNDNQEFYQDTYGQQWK
UniProt P08397: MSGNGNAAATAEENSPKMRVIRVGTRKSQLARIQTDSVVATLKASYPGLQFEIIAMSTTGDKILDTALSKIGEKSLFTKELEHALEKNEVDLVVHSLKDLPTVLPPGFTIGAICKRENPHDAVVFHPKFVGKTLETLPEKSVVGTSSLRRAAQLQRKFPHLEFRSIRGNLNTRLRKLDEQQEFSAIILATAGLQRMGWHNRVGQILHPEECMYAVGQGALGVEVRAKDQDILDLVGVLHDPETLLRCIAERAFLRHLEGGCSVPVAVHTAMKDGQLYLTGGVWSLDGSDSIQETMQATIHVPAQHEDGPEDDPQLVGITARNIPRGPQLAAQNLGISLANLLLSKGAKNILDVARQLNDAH

[1] = compound: CCCS(=O)(=O)Nc1ccc(F)c(C(=O)c2c[nH]c3ncc(Cl)cc23)c1F
Procedure, shortened: as §1

barasertib = compound: CCN(CCCOc1ccc2c(Nc3cc(CC(=O)Nc4cccc(F)c4)[nH]n3)ncnc2c1)CCOP(=O)(O)O [barasertib]
Procedure, shortened: as §1

[2] = compound: CC[C@@H]1C(=O)N(C)c2cnc(Nc3ccc(C(=O)NC4CCN(C)CC4)cc3OC)nc2N1C1CCCC1
Procedure, shortened: as §1

volasertib = compound: CC[C@@H]1C(=O)N(C)c2cnc(Nc3ccc(C(=O)N[C@H]4CC[C@H](N5CCN(CC6CC6)CC5)CC4)cc3OC)nc2N1C(C)C [volasertib]
Procedure, shortened: as §1

[3] = compound: CCn1c(C(=O)N(C2CC2)C2CC2)cc2c3c(ncn3C)c(Nc3cc(C)n(C)n3)nc21
Procedure, shortened: as §1

[4] = compound: CCn1cc(-c2ccnc3[nH]c(-c4cccc(CN(C)C)c4)cc23)c(-c2ccc(NC(=O)N(C)C)cc2)n1
Procedure, shortened: as §1

[5] = compound: CN1CCC(CNc2ccc3ncc(-c4cccc(OC(F)(F)F)c4)n3n2)CC1
Procedure, shortened: as §1

saracatinib = compound: CN1CCN(CCOc2cc(OC3CCOCC3)c3c(Nc4c(Cl)ccc5c4OCO5)ncnc3c2)CC1 [saracatinib]
Procedure, shortened: as §1

sotrastaurin = compound: CN1CCN(c2nc(C3=C(c4c[nH]c5ccccc45)C(=O)NC3=O)c3ccccc3n2)CC1 [sotrastaurin]
Procedure, shortened: as §1

alvocidib = compound: CN1CC[C@H](c2c(O)cc(O)c3c(=O)cc(-c4ccccc4Cl)oc23)[C@H](O)C1 [alvocidib]
Procedure, shortened: as §1

Tubastatin A = compound: CN1CCc2c(c3ccccc3n2Cc2ccc(C(=O)NO)cc2)C1 [Tubastatin A]
Procedure, shortened: as §1

[6] = compound: CNC(=O)C1=CC=CC=C1NC2=NC(=NC=C2Cl)NC3=C(C=C(C=C3)N4CCOCC4)OC
Procedure, shortened: as §1

defactinib = compound: CNC(=O)c1ccc(Nc2ncc(C(F)(F)F)c(NCc3nccnc3N(C)S(C)(=O)=O)n2)cc1 [defactinib]
Procedure, shortened: as §1

[7] = compound: CNc1nc(-c2ccc3c(N)n[nH]c3c2)cc(N2C[C@@H](C(=O)NC3CCCCC3)CC[C@H]2C)n1
Procedure, shortened: as §1

encorafenib = compound: COC(=O)N[C@@H](C)CNc1nccc(-c2cn(C(C)C)nc2-c2cc(Cl)cc(NS(C)(=O)=O)c2F)n1 [encorafenib]
Procedure, shortened: as §1

[8] = compound: COC(=O)[C@H](CCSC)NC(=O)C1=C(C=C(C=C1)NC[C@H](CS)N)C2=CC=CC=C2
Procedure, shortened: as §1

alisertib = compound: COc1cc(Nc2ncc3c(n2)-c2ccc(Cl)cc2C(c2c(F)cccc2OC)=NC3)ccc1C(=O)O [alisertib]
Procedure, shortened: as §1

[9] = compound: COc1cc2nc(-c3cc(F)ccc3O)nc(N[C@@H]3CNC[C@H]3C(C)(C)O)c2cc1OC
Procedure, shortened: as §1

gefitinib = compound: COc1cc2ncnc(Nc3ccc(F)c(Cl)c3)c2cc1OCCCN1CCOCC1 [gefitinib]
Procedure, shortened: as §1

Measured: log2 fold change

HERC4 (UniProt Q5GLZ8)
inactive: vemurafenib 0.041 | [1] 0.016 | barasertib 0.01 | [2] -0.032 | volasertib -0.009 | [3] 0.01 | [4] -0.14 | [5] 0.061 | saracatinib 0.007 | sotrastaurin 0.016 | alvocidib -0.025 | Tubastatin A 0.014 | [6] 0.017 | defactinib 0.007 | [7] -0.004 | encorafenib -0.012 | [8] 0.05 | alisertib -0.008 | [9] -0.001 | gefitinib 0.016

HMGN2 (UniProt P05204)
inactive: vemurafenib 0.024 | [1] -0.015 | barasertib -0.037 | [2] 0.036 | volasertib 0.023 | [3] -0.033 | [4] 0.07 | [5] -0.007 | saracatinib -0.016 | sotrastaurin 0.061 | alvocidib 0.019 | Tubastatin A 0.012 | [6] -0.008 | defactinib -0.013 | [7] 0.014 | encorafenib -0.067 | [8] 0.023 | alisertib -0.047 | [9] 0.047 | gefitinib -0.011

HSD17B8 (UniProt Q92506)
inactive: vemurafenib -0.024 | [1] -0.014 | barasertib -0.054 | [2] -0.074 | volasertib 0.059 | [3] 0.012 | [4] -0.121 | [5] 0.038 | saracatinib 0.003 | sotrastaurin 0.039 | alvocidib -0.02 | Tubastatin A 0.008 | [6] 0.024 | defactinib 0.003 | [7] 0.033 | encorafenib 0.048 | [8] -0.022 | alisertib 0.02 | [9] -0.002 | gefitinib 0.015

HMG20B (UniProt Q9P0W2)
inactive: vemurafenib -0.205 | [1] -0.006 | barasertib 0.018 | [2] 0.056 | volasertib -0.028 | [3] -0.038 | [4] 0.007 | [5] 0.039 | saracatinib 0.058 | sotrastaurin 0.045 | alvocidib -0.035 | Tubastatin A -0.103 | [6] -0.025 | defactinib 0 | [7] 0 | encorafenib 0 | [8] 0.039 | alisertib 0.043 | [9] 0.011 | gefitinib 0.001

HPCAL1 (UniProt P37235)
inactive: vemurafenib 0.009 | [1] 0.02 | barasertib -0.002 | [2] 0.01 | volasertib 0.052 | [3] 0.035 | [4] -0.072 | [5] 0.144 | saracatinib 0.025 | sotrastaurin -0.008 | alvocidib -0.06 | Tubastatin A 0.016 | [6] 0.008 | defactinib 0.079 | [7] -0.118 | encorafenib 0.013 | [8] -0.193 | alisertib -0.006 | [9] 0.012 | gefitinib 0.018

HINT1 (UniProt P49773)
inactive: vemurafenib 0.005 | [1] 0.001 | barasertib 0.1 | [2] 0.021 | volasertib 0.036 | [3] -0.016 | [4] 0.012 | [5] -0.031 | saracatinib -0.01 | sotrastaurin -0.021 | alvocidib 0.053 | Tubastatin A 0.059 | [6] -0.024 | defactinib 0.081 | [7] -0.127 | encorafenib 0.023 | [8] -0.098 | alisertib 0.021 | [9] -0.036 | gefitinib -0.116

HSP90AA4P (UniProt Q58FG1)
inactive: vemurafenib -0.002 | [1] 0 | barasertib 0.377 | [2] 0.006 | volasertib 0.005 | [3] -0.076 | [4] 0.26 | [5] 0.041 | saracatinib -0.03 | sotrastaurin 0.033 | alvocidib -0.228 | Tubastatin A 0.052 | [6] -0.081 | defactinib -0.213 | [7] -0.046 | encorafenib -0.022 | [8] 0.123 | alisertib -0.012 | [9] 0.068 | gefitinib 0.042

HEBP1 (UniProt Q9NRV9)
inactive: vemurafenib 0.017 | [1] 0.002 | barasertib -0.053 | [2] 0.078 | volasertib 0.064 | [3] -0.088 | [4] 0.038 | [5] 0.037 | saracatinib 0.071 | sotrastaurin 0.038 | alvocidib -0.038 | Tubastatin A 0.027 | [6] 0.141 | defactinib 0.01 | [7] 0.007 | encorafenib -0.011 | [8] -0.067 | alisertib 0.034 | [9] 0.036 | gefitinib 0.085

HNRNPH1 (UniProt P31943)
inactive: vemurafenib 0.009 | [1] 0.034 | barasertib -0.008 | [2] 0.078 | volasertib -0.085 | [3] 0.027 | [4] -0.089 | [5] -0.028 | saracatinib -0.005 | sotrastaurin -0.044 | alvocidib -0.021 | Tubastatin A -0.197 | [6] 0.034 | defactinib -0.022 | [7] -0.06 | encorafenib 0.072 | [8] -0.038 | alisertib -0.006 | [9] 0 | gefitinib -0.028

HSD17B10 (UniProt Q99714)
inactive: vemurafenib 0.017 | [1] -0.016 | barasertib -0.021 | [2] -0.006 | volasertib -0.015 | [3] -0.022 | [4] -0.081 | [5] 0.024 | saracatinib -0.022 | sotrastaurin -0.014 | alvocidib -0.02 | Tubastatin A -0.077 | [6] 0.004 | defactinib -0.029 | [7] 0.05 | encorafenib -0.035 | [8] 0.141 | alisertib 0.013 | [9] -0.009 | gefitinib -0.021

HSPA5 (UniProt P11021)
inactive: vemurafenib -0.049 | [1] -0.043 | barasertib -0.028 | [2] -0.083 | volasertib 0.004 | [3] 0.011 | [4] 0.043 | [5] -0.027 | saracatinib -0.003 | sotrastaurin 0.007 | alvocidib 0.007 | Tubastatin A 0.05 | [6] -0.033 | defactinib -0.003 | [7] -0.056 | encorafenib 0.022 | [8] -0.015 | alisertib 0.012 | [9] -0.012 | gefitinib -0.002

HIBADH (UniProt P31937)
inactive: vemurafenib -0.001 | [1] 0.019 | barasertib -0.055 | [2] 0.013 | volasertib -0.004 | [3] -0.001 | [4] 0.035 | [5] 0.008 | saracatinib -0.005 | sotrastaurin 0.012 | alvocidib 0.041 | Tubastatin A 0.019 | [6] -0.001 | defactinib 0.02 | [7] 0.016 | encorafenib -0.019 | [8] -0.045 | alisertib 0.007 | [9] -0.014 | gefitinib -0.041

2 successive entries out of the list so far, for reference:
HSD17B10 (UniProt Q99714)
inactive: vemurafenib 0.017 | [1] -0.016 | barasertib -0.021 | [2] -0.006 | volasertib -0.015 | [3] -0.022 | [4] -0.081 | [5] 0.024 | saracatinib -0.022 | sotrastaurin -0.014 | alvocidib -0.02 | Tubastatin A -0.077 | [6] 0.004 | defactinib -0.029 | [7] 0.05 | encorafenib -0.035 | [8] 0.141 | alisertib 0.013 | [9] -0.009 | gefitinib -0.021

HSPA5 (UniProt P11021)
inactive: vemurafenib -0.049 | [1] -0.043 | barasertib -0.028 | [2] -0.083 | volasertib 0.004 | [3] 0.011 | [4] 0.043 | [5] -0.027 | saracatinib -0.003 | sotrastaurin 0.007 | alvocidib 0.007 | Tubastatin A 0.05 | [6] -0.033 | defactinib -0.003 | [7] -0.056 | encorafenib 0.022 | [8] -0.015 | alisertib 0.012 | [9] -0.012 | gefitinib -0.002

(continued)

HM13 isoform 2 (UniProt Q8TCT9)
inactive: vemurafenib -0.033 | [1] -0.02 | barasertib 0.01 | [2] 0.041 | volasertib 0.083 | [3] -0.009 | [4] -0.07 | [5] 0.022 | saracatinib 0.026 | sotrastaurin 0.013 | alvocidib -0.004 | Tubastatin A 0.037 | [6] 0.016 | defactinib 0.048 | [7] 0.054 | encorafenib 0.018 | [8] 0.011 | alisertib 0.01 | [9] 0.024 | gefitinib 0.026

HSPA4L (UniProt O95757)
inactive: vemurafenib 0.003 | [1] 0.007 | barasertib 0.011 | [2] -0.014 | volasertib -0.039 | [3] -0.003 | [4] -0.017 | [5] 0.028 | saracatinib 0.011 | sotrastaurin 0.005 | alvocidib -0.012 | Tubastatin A -0.018 | [6] -0.002 | defactinib -0.028 | [7] -0.012 | encorafenib -0.005 | [8] 0.12 | alisertib 0.005 | [9] -0.022 | gefitinib 0.014

HNRNPR (UniProt O43390)
inactive: vemurafenib -0.03 | [1] 0.078 | barasertib -0.043 | [2] -0.082 | volasertib -0.027 | [3] -0.021 | [4] -0.214 | [5] 0.062 | saracatinib 0.001 | sotrastaurin 0.081 | alvocidib -0.04 | Tubastatin A 0 | [6] -0.002 | defactinib 0.048 | [7] -0.046 | encorafenib 0.104 | [8] -0.064 | alisertib -0.137 | [9] -0.012 | gefitinib -0.1

HMBS (UniProt P08397)
inactive: vemurafenib -0.021 | [1] -0.007 | barasertib -0.039 | [2] 0.043 | volasertib 0.044 | [3] 0 | [4] 0.019 | [5] -0.004 | saracatinib -0.023 | sotrastaurin -0.003 | alvocidib 0.048 | Tubastatin A 0.036 | [6] 0.012 | defactinib -0.014 | [7] -0.002 | encorafenib -0.041 | [8] -0.029 | alisertib -0.043 | [9] 0.011 | gefitinib -0.031
